The other results are listed elsewhere or left out.

The chains behind the UniProt entries cited, without tags or fusion partners.
UniProt Q0JBA9, entry or part of it: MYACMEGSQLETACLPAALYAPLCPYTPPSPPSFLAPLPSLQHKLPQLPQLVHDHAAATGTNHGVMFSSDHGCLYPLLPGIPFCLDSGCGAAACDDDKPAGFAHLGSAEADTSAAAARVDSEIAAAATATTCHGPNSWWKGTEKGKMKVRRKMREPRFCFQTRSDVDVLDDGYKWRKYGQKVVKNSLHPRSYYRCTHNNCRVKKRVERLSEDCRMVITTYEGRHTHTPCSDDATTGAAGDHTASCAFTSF

The assay deals with OsWRKY34 (Oryza sativa, UniProt Q0JBA9 1-250). The assay is described as follows: protein-binding microarray (RPBM); PBS, 2% BSA, 51.3 ng/ul salmon testes DNA, 50 uM zinc acetate, 200 nM TF, 25 C, 1 h; high values mean tight binding. As to conditions: protein: recombinant; tags: N-terminal polyhistidine and DsRed monomer fusion (pET32a); label: CyDye5-dUTP incorporated in the synthesized complementary strand; 3' TTTTT single-stranded linker to array surface; dsDNA, one strand shown. Put shortly:
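Using Ni–NTA, transcription factors fused N-terminally to polyhistidine and DsRed were purified after expression in E. coli BL21-CodonPlus. These were incubated at 200 nM with a blocked, double-stranded custom Agilent array for 1 h at 25 °C in a buffer containing 50 µM zinc acetate, and the array was washed. The binding signal is per-feature fluorescence intensity (arbitrary units) on an Axon 4000B scanner.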
Take “CGTTTGCTACAAATTCAGGCCCATATCATCGTTCATGTCACGGAGTCACCTAGTGCAG”: the binding signal was 11600 fluorescence intensity (a.u.).

Take “TTTCTTTCTAATTTTTTTAATCTTTCGCACACCTCTTTATCGGAGTCACCTAGTGCAG”: the binding signal was 9800 fluorescence intensity (a.u.).

“GTGTTCTTATTACATAATTAGCTGCTGCCATTTTTTTTTACGGAGTCACCTAGTGCAG”: the binding signal is 8980 fluorescence intensity (a.u.).

As to “ATTGTTTCTCCTTTACGCGTTTTAAGCTTTCCATCTTGAACGGAGTCACCTAGTGCAG”, the binding signal is 9480 fluorescence intensity (a.u.).

As for “CTTAGTTCCGCCGGCAGTGATGCACTCGGTTTGACCGGAGCGGAGTCACCTAGTGCAG”, the binding signal is 8260 fluorescence intensity (a.u.).

On to “GATATATATGGTCCTCTCACCAGCTGCCACATGCAAGCAACGGAGTCACCTAGTGCAG”, for which the binding signal was 8030 fluorescence intensity (a.u.).

With “CTTGATTGCTGATTAGTCAGCTGCCTGCGCTGCGTTCTCCCGGAGTCACCTAGTGCAG”, the binding signal is 8710 fluorescence intensity (a.u.).

Consider “GGCTCTCGAAACTTCCGGGCTCCGGCGACTCCGCCGGCCGCGGAGTCACCTAGTGCAG”, for which the binding signal was 9030 fluorescence intensity (a.u.).

As to “CATTCACTTTTCCATTTCTGATGCCATGGGTCTTATTCCACGGAGTCACCTAGTGCAG”, the binding signal was 10900 fluorescence intensity (a.u.).

For “TTGTTGTCTTGGAGTTGGTCTTAGTTTTGTGGAACCCTACCGGAGTCACCTAGTGCAG”, the binding signal was 10800 fluorescence intensity (a.u.).

Take “GGAGATGCGCTATACCAGGTTGTGTGGTTGAGGGAGGTGACGGAGTCACCTAGTGCAG”: the binding signal is 10200 fluorescence intensity (a.u.).

On to “GGAGAGGATCAATCTTTACCACCTTCTTTGTTGTTTGATTCGGAGTCACCTAGTGCAG”, for which the binding signal was 11000 fluorescence intensity (a.u.).

For the sequence “ACCAGTAGCTAAGCCATCCATCCATCCATCGGCCGCGCACCGGAGTCACCTAGTGCAG”, the binding signal was 8780 fluorescence intensity (a.u.).

As for “CGTGTGTGCCTGTGCCTCGAGGTTATTTCCCCGTCCGCTACGGAGTCACCTAGTGCAG”, the binding signal is 10700 fluorescence intensity (a.u.).

In the case of “GTGTTCTTGCCCTTGCTTTGTAATCCAATTGTGATTTTGCCGGAGTCACCTAGTGCAG”, the binding signal was 8220 fluorescence intensity (a.u.).

As for “TGTTTGACTTTTTTCTTGGTTAAAATTCTTTAAATTTGATCGGAGTCACCTAGTGCAG”, the binding signal is 18900 fluorescence intensity (a.u.).

Regarding “TTTAGACTTCTTCCAACTGGAATGCGTTTGACCCTAACCACGGAGTCACCTAGTGCAG”, the binding signal is 8180 fluorescence intensity (a.u.).

For the sequence “ACCATTCCTACCACATCACACTTGATCTGCATTCTTCATCCGGAGTCACCTAGTGCAG”, the binding signal is 14000 fluorescence intensity (a.u.).

In the case of “CCTTCCGTTTCCGTTCCGTTCCATTTCCCGTTCACACCCTCGGAGTCACCTAGTGCAG”, the binding signal was 9680 fluorescence intensity (a.u.).

“CCTCTTTTGAACATTTTCCTAACTTCTACTCTTATTTTTCCGGAGTCACCTAGTGCAG”: the binding signal is 10800 fluorescence intensity (a.u.).

As for “ATCTTTGCCTCGTTCGTCCTCCGGTTTTCTCCGCAGTTTCCGGAGTCACCTAGTGCAG”, the binding signal was 12500 fluorescence intensity (a.u.).

Take “GTGGACTGTATTGATGATTTCCCATTATTTTTTATACCTTCGGAGTCACCTAGTGCAG”: the binding signal is 12600 fluorescence intensity (a.u.).

Turning to “TTGTACCTTGATCCATTGGTTGGGCCAACATTTTTTACGACGGAGTCACCTAGTGCAG”, the binding signal was 12100 fluorescence intensity (a.u.).

As to “ATTGCAGCCTTCGCCTCCTTTCCTTCAGGTACACATATTGCGGAGTCACCTAGTGCAG”, the binding signal was 9850 fluorescence intensity (a.u.).

As to “CTCTCCCGCAGCCGCCCGCAAGATCGATCTGTCACTCATGCGGAGTCACCTAGTGCAG”, the binding signal is 8110 fluorescence intensity (a.u.).

In the case of “AATCCTAGCATCTACCAAGTTCCTCGGACTCTTCGTCGTTCGGAGTCACCTAGTGCAG”, the binding signal was 11800 fluorescence intensity (a.u.).

On to “GGACTCCCGTACACCGCCCAAACCTACTCAATGATATTCTCGGAGTCACCTAGTGCAG”, for which the binding signal is 8150 fluorescence intensity (a.u.).

“TCGCCGCGCGCGCCCACTCCTCCGCGTCGCGTCACCCATGCGGAGTCACCTAGTGCAG”: the binding signal was 8620 fluorescence intensity (a.u.).

“CCCCGCATAAACACTCTCACTGACGTGTGGGCCCCGCAGACGGAGTCACCTAGTGCAG”: the binding signal is 9860 fluorescence intensity (a.u.).

Regarding “CTTTATATATATATGCACGCCCACCATCACCATCTAAACGCGGAGTCACCTAGTGCAG”, the binding signal is 8050 fluorescence intensity (a.u.).

Take “CACCACTTCACCTGGATCCGCTCCGACCGCTGCGCTTCGTCGGAGTCACCTAGTGCAG”: the binding signal was 8690 fluorescence intensity (a.u.).

As to “GTCTATCGTCCTGATGTTGCCCGTGTTGGAGTTGATTCACCGGAGTCACCTAGTGCAG”, the binding signal was 8080 fluorescence intensity (a.u.).

Consider “GTTGCTGCCGACGGAGCTCCTCGGCTTCTCAGTTCCACTTCGGAGTCACCTAGTGCAG”, for which the binding signal is 8110 fluorescence intensity (a.u.).

As to “TGCTTTTTGGTATCTGCACATCCAATATTTGGGTTTTTTTCGGAGTCACCTAGTGCAG”, the binding signal was 8630 fluorescence intensity (a.u.).

In the case of “AGTACTATACTTCTTTTACCTGTTTCATTGAAATAATTGCCGGAGTCACCTAGTGCAG”, the binding signal is 10500 fluorescence intensity (a.u.).

Take “TTCCTGGGAGGGGTTTATGTGAGAAAGGCCATCGTATTCTCGGAGTCACCTAGTGCAG”: the binding signal was 9780 fluorescence intensity (a.u.).

For the sequence “ACTTCATGAACTTACGCTACGTTTCACCAAGTTTCATTTACGGAGTCACCTAGTGCAG”, the binding signal is 8840 fluorescence intensity (a.u.).

Consider “ATTCGCCTCCGCCGCCCTTCTGGCCACGTCATCTTATTAACGGAGTCACCTAGTGCAG”, for which the binding signal was 8540 fluorescence intensity (a.u.).

On to “CTAAAATCATATATTGTATACTCCTTCCGTTTTATATTATCGGAGTCACCTAGTGCAG”, for which the binding signal is 10100 fluorescence intensity (a.u.).

For the sequence “ATGCAAATATTCTTCTCTCTTGAACTCTTGGTCTTGGTGACGGAGTCACCTAGTGCAG”, the binding signal is 8190 fluorescence intensity (a.u.).

Regarding “TGCCTAGCTTCTTCTCATCTCGGCGCGGCGGCTGCGTCCGCGGAGTCACCTAGTGCAG”, the binding signal is 8180 fluorescence intensity (a.u.).

“TGTGCCTCCGGATTTGACCTTTCCTCGAACCTTCTTCTTCCGGAGTCACCTAGTGCAG”: the binding signal is 13300 fluorescence intensity (a.u.).

Source of the values: paper PMC7819943, “Rice protein-binding microarrays: a tool to detect cis-acting elements near promoter regions in rice”.
